From PubChem BioAssay AID2685 (National Center for Advancing Translational Sciences (NCATS), 2010)
Among all 320,000 compounds or so, about 2,100 (0.66%) were called active. This list was built around the results that the source calls inconclusive (neither active nor inactive); the mix of calls is not that of the screen. The call rests on the fitted dose curve; in most records, active means well fitted inhibition curve with a large enough effect in the signal ratio, with a control signal flat (not every such curve was filed as active); inconclusive means small, poorly fitted or top-dose-only effect, or effect the other way, or a change in a side signal; inactive means flat fitted curve, though single readings scatter; the % refers to the signal ratio. A potency beside an inconclusive call is a rough fit, not a confirmed value.

test: qHTS Assay for Lipid Storage Modulators in Drosophila S3 Cells; conditions: BODIPY lipid droplet fluorescence, 18-24 h, cells fed with added oleic acid; lipid storage change, negative = inhibition: at 46.1 µM (top of the series) unless noted
Method in brief: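 Drosophila S3 cells got compounds at several concentrations plus oleic acid (400 uM solution). Laser-scanning cytometry with 488 nm excitation read lipid droplets at 500-530 nm and cells at 575-640 nm. Percent activity was relative to 20 uM Triacsin C.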
On the % scale 0 is the no-effect control and ±100 the full control effect; potency means the concentration at half of the fitted maximal effect.

Q: For `COc1cccc(NC(=O)N2CCCC2)c1`, which lipid storage change, negative = inhibition is on record?
A: inconclusive: -48.1% [cytotoxic] [at 0.00295 µM]

Q: With `CCCc1nc2ccccc2c(=O)n1N` as the molecule, how does the Potency read?
A: inconclusive: 0.731 µM [rising, single point]

Q: For `Cc1nc2c(n1O)CCC/C2=N\O`, which lipid storage change, negative = inhibition is on record?
A: inactive

Q: With `CC1(c2ccc3c(c2)OCO3)NC(=O)N(CC(=O)c2ccc[nH]2)C1=O` (stereo not given) as the molecule, how does the lipid storage change, negative = inhibition read?
A: inconclusive

Q: With `COc1ccc(CCNC(=S)N2CCN(S(=O)(=O)c3ccccc3F)CC2)cc1` as the molecule, how does the Potency read?
A: inconclusive: 29.1 µM [falling, single point]

Q: Which lipid storage change, negative = inhibition does the source give for `CCOC(=O)c1c(NC(=O)C2C3C=CC(C3)C2C(=O)O)sc2c1CC(C)CC2` (stereo not given) here?
A: inconclusive: -17.1%

Q: With `Cc1cc([N+](=O)[O-])cc2c1-c1ncccc1C2=Nc1ccccc1` as the molecule, how does the lipid storage change, negative = inhibition read?
A: inconclusive: 11.1%

Q: Which Potency does the source give for `CCOC(=O)/C(=N\Nc1ccccc1Cl)N(C)C1CCS(=O)(=O)C1` (stereo not given) here?
A: inconclusive: 0.731 µM [falling, single point]

Q: For `CCN(CC)C(=O)C(Oc1ccc(S(=O)(=O)N2CCCC2)cc1[N+](=O)[O-])c1ccccc1` (stereo not given), which lipid storage change, negative = inhibition is on record?
A: inactive

Q: With `O=C(CSc1nnc(-c2ccc(F)cc2)o1)N1CCCC1` as the molecule, how does the lipid storage change, negative = inhibition read?
A: inconclusive: 9.11%

Q: For `COc1ccc(C(C)(C)C)cc1NC(=O)c1ccc2ncsc2c1`, which Potency is on record?
A: inconclusive: 0.116 µM [falling, full curve, poor fit]

Q: For `O=C(COc1ccccc1Br)NC1CCCC1`, which lipid storage change, negative = inhibition is on record?
A: inconclusive: 35.3%

Q: For `COc1ccc(N2CCN(CC(O)COC(C)(C)C)CC2)cc1` (stereo not given), which lipid storage change, negative = inhibition is on record?
A: inconclusive: -39%

Q: Which lipid storage change, negative = inhibition does the source give for `Cc1nc2ccc(C(=O)OCC(=O)N(C)c3ccccc3)cc2nc1C` here?
A: inconclusive

Q: For `Nc1nc(-c2ccccc2)c(C(=O)Nc2ccccc2)s1`, which lipid storage change, negative = inhibition is on record?
A: inconclusive: 28.8%

Q: With `Cc1ccc(NC(=O)N2N=C(c3ccc(F)cc3)CC2c2ccc(F)cc2)cc1` (stereo not given) as the molecule, how does the Potency read?
A: inconclusive: 11.6 µM [activator, partial curve]

Q: Which Potency does the source give for `O=c1[nH]n(-c2ccc(Cl)cc2)c(=O)c(Cl)c1Cl` here?
A: inconclusive: 0.184 µM [falling, full curve, poor fit]

Q: Which lipid storage change, negative = inhibition does the source give for `Cn1c(O)c(N=NC(=O)c2ccccc2O)c2ccccc21` here?
A: inconclusive: -29.4%

Q: For `CN(C(=O)C1CCCN(c2ncnc3c2nc2n3CCCCC2)C1)c1cccc(Cl)c1` (stereo not given), which Potency is on record?
A: inconclusive: 29.1 µM [falling, single point]

Q: For `COCCCNC(=O)c1ccc2nc(Cc3ccc(OC)cc3)oc2c1`, which lipid storage change, negative = inhibition is on record?
A: inconclusive: 7.39%

Q: With `NC(=O)Cn1nnc(-c2ccc(NC(=O)c3ccc(F)cc3)cc2)n1` as the molecule, how does the lipid storage change, negative = inhibition read?
A: inconclusive: -5.51%

Q: For `CCOC(=O)c1cc(C)nn1-c1nc(Cl)cc(OC)n1`, which Potency is on record?
A: inconclusive: 3.66 µM [activator, full curve, poor fit]

Q: For `CC(C(=O)NCC(=O)Nc1ccc(F)c(F)c1F)N1CCN(Cc2ccc(C#N)cc2)CC1` (stereo not given), which lipid storage change, negative = inhibition is on record?
A: inconclusive: 51.4%

Q: For `CCCCCCSc1ccc(-c2nc3ccc(C)cn3c2NCc2ccccc2)cc1OC`, which Potency is on record?
A: inconclusive: 29.1 µM [falling, single point]

Q: With `CCCOc1ccc(C(=O)Nc2ccc(CN3CCOCC3)cc2)cc1` as the molecule, how does the Potency read?
A: inconclusive: 29.1 µM [activator, single point]

Q: Which lipid storage change, negative = inhibition does the source give for `CCn1c(=O)c(-[n+]2ccccc2)c(O)c2ccccc21` here?
A: inconclusive: 5.64%

Q: Which Potency does the source give for `COc1cc(-c2nc(C(=O)NCC3CCCO3)cc3c2[nH]c2ccccc23)cc(OC)c1OC` (stereo not given) here?
A: inconclusive: 23.1 µM [falling, partial curve, poor fit]

Q: With `Cc1cc(C)c2c(c1)-c1c(ssc1=S)C(C)(C)N2C(=O)CSc1nncn1C` as the molecule, how does the lipid storage change, negative = inhibition read?
A: inconclusive: -9.45%

Q: For `CCOc1ccc(NC(=O)CCC(=O)NNS(=O)(=O)c2ccccc2[N+](=O)[O-])cc1`, which lipid storage change, negative = inhibition is on record?
A: inconclusive: -16.5%

Q: Which lipid storage change, negative = inhibition does the source give for `COc1ccc(C(=O)NC(=S)NNC(=O)CCc2ccccc2)cc1` here?
A: inconclusive: -24.8%

Q: With `COc1ccccc1-c1nnc(SCC(=O)Nc2ccc3[nH]c(=O)[nH]c3c2)n1N` as the molecule, how does the lipid storage change, negative = inhibition read?
A: inconclusive: -21.1%

Q: For `O=C(N/N=C/c1ccccn1)c1ccc(NC(=O)c2ccc(F)cc2)cc1`, which Potency is on record?
A: inconclusive: 0.461 µM [falling, partial curve, poor fit]

Q: For `CCN1CC2([N+](=O)[O-])CC=C(OC)C([N+](=O)[O-])(C1)C2` (stereo not given), which Potency is on record?
A: inconclusive: 14.6 µM [falling, partial curve, poor fit]

Q: With `CC(C)c1ccc(CNn2cnnc2)cc1` as the molecule, how does the lipid storage change, negative = inhibition read?
A: inconclusive: -9.16%

Q: Which Potency does the source give for `O=C(N/N=C/c1c(Cl)cccc1Cl)c1ccc(-n2cnnn2)cc1` here?
A: inconclusive: 3.26 µM [activator, partial curve, poor fit]

Q: With `O=C(O)c1cccc(NC(=O)c2cn(-c3ccccc3)nc2-c2ccncc2)c1` as the molecule, how does the lipid storage change, negative = inhibition read?
A: inconclusive: -84.4%

Q: With `O=C(OCN1C(=O)c2ccccc2C1=O)c1cccs1` as the molecule, how does the lipid storage change, negative = inhibition read?
A: inconclusive: -1.7%

Q: For `Cc1c(/C=N/NC(N)=O)c2ccccn2c1C(=O)c1ccc(F)cc1`, which lipid storage change, negative = inhibition is on record?
A: inconclusive: -6.54%

Q: For `Cc1cc(C)c(NC(=O)COc2ccc(-n3cnnn3)cc2)c(C)c1`, which lipid storage change, negative = inhibition is on record?
A: inconclusive: 60.4%

Q: Which lipid storage change, negative = inhibition does the source give for `COc1cccc(C(=O)NC(C)c2ccc(Br)cc2)c1` (stereo not given) here?
A: inconclusive: 0.097%

Q: For `CC1(C)Cc2c(cnn2-c2ccc(F)cc2)C(NC(=O)c2ccco2)C1` (stereo not given), which Potency is on record?
A: inconclusive: 23.1 µM [falling, single point]

Q: With `O=c1[nH]c(/C(=N\O)c2ccccc2)no1` as the molecule, how does the lipid storage change, negative = inhibition read?
A: inconclusive: 25.3%

Q: For `O=C(COC(=O)c1cc(=O)[nH]c2ccccc12)c1cccs1`, which lipid storage change, negative = inhibition is on record?
A: inconclusive: -3.91%

Q: With `Cc1ncoc1C(=O)N1CCCC(C(=O)c2ccc(-c3ccccc3)cc2)C1` (stereo not given) as the molecule, how does the lipid storage change, negative = inhibition read?
A: inconclusive: -0.516%

Q: Which lipid storage change, negative = inhibition does the source give for `CC(C)=CC(=O)O[C@@H]1Cc2cc3ccc(=O)oc3cc2OC1(C)C` here?
A: inactive

Q: For `C=CCN(CC=C)Cc1c(C)[nH]c2c(C)c(C)ccc2c1=O`, which lipid storage change, negative = inhibition is on record?
A: inconclusive: 9.7%

Q: With `CCOc1ccc(-c2csc(NNC3=NCCCCC3)n2)cc1` as the molecule, how does the Potency read?
A: inconclusive: 29.1 µM [cytotoxic, single point]

Q: For `COC(=O)c1ccc(/C=N/N2C(C)CCCC2C)cc1` (stereo not given), which lipid storage change, negative = inhibition is on record?
A: inconclusive: 26%

Q: Which lipid storage change, negative = inhibition does the source give for `c1ccc(Nc2nc(-c3ccccn3)cs2)cc1` here?
A: inconclusive: 15.9%

Q: With `O=C(COC(=O)CCC(=O)c1cccs1)Nc1ccc(S(=O)(=O)N2CCOCC2)cc1` as the molecule, how does the lipid storage change, negative = inhibition read?
A: inconclusive: 5.36%

Q: For `O=C(Nc1ccc(CN2CCOCC2)cc1)c1cc2ccccn2n1`, which lipid storage change, negative = inhibition is on record?
A: inconclusive: 33.3%

Q: With `Cc1ccc(NS(=O)(=O)c2c(C(=O)N3CCOCC3)c(C)n(C)c2C)cc1` as the molecule, how does the lipid storage change, negative = inhibition read?
A: inconclusive: 4.8%

Q: With `S=C1NCCOCCOCCOCCOCCN1` as the molecule, how does the Potency read?
A: active: 13 µM

Q: With `O=C(NCCCN1CCCC1=O)c1cccc(N2CCCC2=O)c1` as the molecule, how does the lipid storage change, negative = inhibition read?
A: inconclusive: 0.552%

Q: Which Potency does the source give for `COc1ccccc1-c1nnc2sc(C3CCCCC3)nn12` here?
A: inconclusive: 29.1 µM [activator, single point]

Q: For `CCn1c(-c2cc(Cl)ccc2OC)n[nH]c1=S`, which Potency is on record?
A: inconclusive: 29.1 µM [activator, single point]

Q: For `Cc1c(C=O)c(=O)n(-c2ccccc2)n1-c1ccccc1`, which lipid storage change, negative = inhibition is on record?
A: inconclusive: 0.848%

Q: Which Potency does the source give for `Cc1c(Cl)cccc1NC(=O)C(=O)NNC(=O)c1ccccc1F` here?
A: inconclusive: 2.06 µM [activator, single point]

Q: For `CCOc1ccc(-c2nc[nH]c2[N+](=O)[O-])cc1`, which lipid storage change, negative = inhibition is on record?
A: inconclusive: 4.47%

Q: With `CCOC(=O)C1CCN(C(=O)c2ccc3c(Cl)c4c(nc3c2)CCCC4)CC1` as the molecule, how does the lipid storage change, negative = inhibition read?
A: inconclusive: 13.5%

Q: For `COCCOC(=O)C1=C(C)NC(=O)NC1c1cccc(F)c1` (stereo not given), which lipid storage change, negative = inhibition is on record?
A: inconclusive: -16%

Q: For `OCCC#Cc1ccc(CN2CCN(Cc3ccccc3)C(CCO)C2)cc1` (stereo not given), which lipid storage change, negative = inhibition is on record?
A: inconclusive: -6.39%

Q: Which lipid storage change, negative = inhibition does the source give for `COc1ccc(-c2csc3nc(-c4ccccc4OC)oc(=O)c23)cc1` here?
A: inconclusive: -52.2%

Q: With `O=C(NCc1nnc2c(C(F)(F)F)cc(Cl)cn12)C1CCCC1` as the molecule, how does the lipid storage change, negative = inhibition read?
A: inconclusive: 6.95%

Q: With `O=C(c1ccc([N+](=O)[O-])cc1)N(Cc1ccccc1)c1ccccn1` as the molecule, how does the lipid storage change, negative = inhibition read?
A: inconclusive: 2.07%

Q: With `Clc1ccc(Nc2ccc(NCc3ccccc3)nn2)cc1` as the molecule, how does the lipid storage change, negative = inhibition read?
A: inconclusive: 27.5%

Q: For `CC(C)(C)n1ncc2c(=O)n(Cc3cccc(Cl)c3)cnc21`, which lipid storage change, negative = inhibition is on record?
A: inconclusive: -5.34%

Q: With `N#Cc1ccc(Cl)cc1NC(=O)COC(=O)c1cccc(S(=O)(=O)N2CCOCC2)c1` as the molecule, how does the lipid storage change, negative = inhibition read?
A: inconclusive: 6.25%

Q: Which lipid storage change, negative = inhibition does the source give for `CCCCC(=O)Nc1ccc(C(=O)NCCN2CCOCC2)cc1` here?
A: inconclusive: -2.3%

Q: For `COc1ccc(NC2CCCN(C(=O)CCc3cn[nH]c3)C2)cc1` (stereo not given), which lipid storage change, negative = inhibition is on record?
A: inconclusive: 14.3%

Q: Which lipid storage change, negative = inhibition does the source give for `Cn1c(/N=C/c2c(O)ccc3ccccc23)nc2ccccc21` here?
A: inconclusive: 32.4%

Q: With `CC(C)(C)c1cc(C(=O)NNc2ccc(OC(F)(F)F)cc2)n(Cc2ccccc2)n1` as the molecule, how does the lipid storage change, negative = inhibition read?
A: inactive

Q: For `CC(C)c1ccc(S(=O)(=O)N2CCN(C(=S)NCc3ccco3)CC2)cc1`, which Potency is on record?
A: inconclusive: 29.1 µM [activator, single point]

Q: For `Cc1ccc(C(=O)Cn2cnc3ccccc3c2=O)cc1C`, which Potency is on record?
A: inconclusive: 1.84 µM [activator, partial curve]

Q: For `Cn1nc(-c2ccccc2)cc1NC(=O)c1cccs1`, which lipid storage change, negative = inhibition is on record?
A: inconclusive: -24.8%

Q: With `O=C(Nc1ccc2c(c1)OCCO2)c1oc2ccccc2c1NC(=O)C1CC1` as the molecule, how does the lipid storage change, negative = inhibition read?
A: inconclusive: -60.2%

Q: For `Cc1ccc2nsnc2c1NS(=O)(=O)c1c(C)ccc2nsnc12`, which lipid storage change, negative = inhibition is on record?
A: inconclusive: -7.07%

Q: For `COc1ccc(CNC(=O)CSc2nnc3nc(C)cc(C)n23)cc1OC`, which lipid storage change, negative = inhibition is on record?
A: inconclusive: -7.17%

Q: With `O=[N+]([O-])c1ccc(CN2CCN(Cc3c[nH]c4ccccc34)CC2)cc1` as the molecule, how does the lipid storage change, negative = inhibition read?
A: inconclusive: -5.04%

Q: For `Cc1cccc(C)c1NC(=O)COC(=O)c1cc(-c2cccnc2)nc2ccccc12`, which lipid storage change, negative = inhibition is on record?
A: inconclusive: 27.3%
